According to the supplement of paper PMC7666118:
This is one part of the list.

Protein sequences, listed by entry. Tags and fused reporters are not part of them. Lines headed by an entry give the natural chain unless they say otherwise; changes in a name come on top.
UniProt P0C7P0: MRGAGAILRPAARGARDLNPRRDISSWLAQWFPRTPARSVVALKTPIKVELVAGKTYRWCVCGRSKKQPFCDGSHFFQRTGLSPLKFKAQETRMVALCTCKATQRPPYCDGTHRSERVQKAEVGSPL
UniProt P48643, whole entry: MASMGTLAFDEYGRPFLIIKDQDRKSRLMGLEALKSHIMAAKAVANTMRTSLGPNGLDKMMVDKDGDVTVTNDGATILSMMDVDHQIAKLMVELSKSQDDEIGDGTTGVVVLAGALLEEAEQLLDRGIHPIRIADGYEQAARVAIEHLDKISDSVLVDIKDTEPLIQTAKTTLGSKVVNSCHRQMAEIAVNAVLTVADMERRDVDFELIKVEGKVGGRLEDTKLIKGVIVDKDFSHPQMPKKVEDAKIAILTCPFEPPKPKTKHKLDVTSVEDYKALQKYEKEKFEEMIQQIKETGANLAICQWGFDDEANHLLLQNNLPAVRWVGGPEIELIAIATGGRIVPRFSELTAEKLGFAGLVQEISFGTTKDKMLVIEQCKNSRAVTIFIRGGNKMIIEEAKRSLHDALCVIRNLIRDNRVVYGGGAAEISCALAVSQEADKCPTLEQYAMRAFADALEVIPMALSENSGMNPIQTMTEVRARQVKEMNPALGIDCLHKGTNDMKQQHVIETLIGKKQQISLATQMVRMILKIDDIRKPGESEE
UniProt P54105: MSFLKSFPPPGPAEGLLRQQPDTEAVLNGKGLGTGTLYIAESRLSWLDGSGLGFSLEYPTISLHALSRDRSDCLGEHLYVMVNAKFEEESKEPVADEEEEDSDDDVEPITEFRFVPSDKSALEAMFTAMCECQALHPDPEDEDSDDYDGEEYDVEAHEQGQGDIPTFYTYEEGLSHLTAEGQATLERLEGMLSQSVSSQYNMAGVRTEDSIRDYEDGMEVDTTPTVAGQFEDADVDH
UniProt Q8NCX0: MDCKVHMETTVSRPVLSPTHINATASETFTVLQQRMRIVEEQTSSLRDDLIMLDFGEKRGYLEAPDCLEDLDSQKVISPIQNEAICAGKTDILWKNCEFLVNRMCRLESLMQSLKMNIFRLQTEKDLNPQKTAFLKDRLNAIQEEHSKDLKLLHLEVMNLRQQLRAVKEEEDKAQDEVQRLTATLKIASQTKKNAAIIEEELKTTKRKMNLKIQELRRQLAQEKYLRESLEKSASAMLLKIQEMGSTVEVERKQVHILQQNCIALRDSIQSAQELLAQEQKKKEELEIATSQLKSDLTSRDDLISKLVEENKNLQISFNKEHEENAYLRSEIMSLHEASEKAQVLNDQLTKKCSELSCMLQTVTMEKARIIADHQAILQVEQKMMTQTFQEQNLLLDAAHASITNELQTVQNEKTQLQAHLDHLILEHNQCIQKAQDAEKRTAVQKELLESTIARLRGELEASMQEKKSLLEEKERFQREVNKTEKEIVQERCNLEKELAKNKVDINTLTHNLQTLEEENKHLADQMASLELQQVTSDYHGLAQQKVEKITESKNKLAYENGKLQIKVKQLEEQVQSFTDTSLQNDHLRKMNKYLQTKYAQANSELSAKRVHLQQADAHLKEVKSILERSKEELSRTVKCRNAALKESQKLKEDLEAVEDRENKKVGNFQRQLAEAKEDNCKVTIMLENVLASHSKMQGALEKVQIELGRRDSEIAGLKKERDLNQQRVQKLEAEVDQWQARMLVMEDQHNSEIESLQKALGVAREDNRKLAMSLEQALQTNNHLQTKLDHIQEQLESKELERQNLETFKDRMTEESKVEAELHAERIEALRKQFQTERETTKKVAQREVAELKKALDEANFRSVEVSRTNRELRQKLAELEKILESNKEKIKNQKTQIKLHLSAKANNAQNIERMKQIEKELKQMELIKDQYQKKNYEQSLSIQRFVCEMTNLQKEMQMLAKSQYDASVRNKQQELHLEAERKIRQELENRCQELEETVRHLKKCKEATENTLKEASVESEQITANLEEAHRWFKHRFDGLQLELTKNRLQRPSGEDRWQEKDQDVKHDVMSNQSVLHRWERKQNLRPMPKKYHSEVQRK
UniProt Q8WVB6, whole entry: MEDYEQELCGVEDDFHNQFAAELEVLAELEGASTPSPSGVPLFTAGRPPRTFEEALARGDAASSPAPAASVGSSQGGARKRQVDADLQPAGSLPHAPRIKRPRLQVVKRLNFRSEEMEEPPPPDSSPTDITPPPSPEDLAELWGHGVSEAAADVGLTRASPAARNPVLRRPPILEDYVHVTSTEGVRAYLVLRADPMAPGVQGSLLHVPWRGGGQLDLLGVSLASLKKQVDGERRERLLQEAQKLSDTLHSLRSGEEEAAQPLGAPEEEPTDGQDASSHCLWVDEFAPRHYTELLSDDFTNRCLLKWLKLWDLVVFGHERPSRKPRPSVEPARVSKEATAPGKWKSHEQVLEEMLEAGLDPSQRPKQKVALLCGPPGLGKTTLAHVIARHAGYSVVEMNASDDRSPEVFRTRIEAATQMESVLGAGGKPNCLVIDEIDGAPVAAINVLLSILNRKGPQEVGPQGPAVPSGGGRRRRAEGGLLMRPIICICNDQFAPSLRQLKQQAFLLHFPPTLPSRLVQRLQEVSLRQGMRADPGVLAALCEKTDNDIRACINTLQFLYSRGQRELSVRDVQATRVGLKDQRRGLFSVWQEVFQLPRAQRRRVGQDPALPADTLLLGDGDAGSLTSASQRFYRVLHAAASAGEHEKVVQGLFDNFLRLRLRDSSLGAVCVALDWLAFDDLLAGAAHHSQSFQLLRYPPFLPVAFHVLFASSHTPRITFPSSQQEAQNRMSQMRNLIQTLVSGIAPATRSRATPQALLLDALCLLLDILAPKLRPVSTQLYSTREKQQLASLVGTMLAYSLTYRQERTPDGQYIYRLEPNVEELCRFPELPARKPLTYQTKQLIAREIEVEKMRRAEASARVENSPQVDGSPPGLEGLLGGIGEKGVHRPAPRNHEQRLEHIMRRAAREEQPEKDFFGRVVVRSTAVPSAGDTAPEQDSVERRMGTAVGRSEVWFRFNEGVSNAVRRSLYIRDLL
UniProt Q9HD42: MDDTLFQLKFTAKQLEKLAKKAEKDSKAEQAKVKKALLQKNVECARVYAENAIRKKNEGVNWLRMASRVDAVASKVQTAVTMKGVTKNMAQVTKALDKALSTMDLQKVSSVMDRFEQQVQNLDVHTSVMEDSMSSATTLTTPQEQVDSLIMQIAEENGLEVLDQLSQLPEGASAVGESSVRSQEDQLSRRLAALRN
UniProt O15111: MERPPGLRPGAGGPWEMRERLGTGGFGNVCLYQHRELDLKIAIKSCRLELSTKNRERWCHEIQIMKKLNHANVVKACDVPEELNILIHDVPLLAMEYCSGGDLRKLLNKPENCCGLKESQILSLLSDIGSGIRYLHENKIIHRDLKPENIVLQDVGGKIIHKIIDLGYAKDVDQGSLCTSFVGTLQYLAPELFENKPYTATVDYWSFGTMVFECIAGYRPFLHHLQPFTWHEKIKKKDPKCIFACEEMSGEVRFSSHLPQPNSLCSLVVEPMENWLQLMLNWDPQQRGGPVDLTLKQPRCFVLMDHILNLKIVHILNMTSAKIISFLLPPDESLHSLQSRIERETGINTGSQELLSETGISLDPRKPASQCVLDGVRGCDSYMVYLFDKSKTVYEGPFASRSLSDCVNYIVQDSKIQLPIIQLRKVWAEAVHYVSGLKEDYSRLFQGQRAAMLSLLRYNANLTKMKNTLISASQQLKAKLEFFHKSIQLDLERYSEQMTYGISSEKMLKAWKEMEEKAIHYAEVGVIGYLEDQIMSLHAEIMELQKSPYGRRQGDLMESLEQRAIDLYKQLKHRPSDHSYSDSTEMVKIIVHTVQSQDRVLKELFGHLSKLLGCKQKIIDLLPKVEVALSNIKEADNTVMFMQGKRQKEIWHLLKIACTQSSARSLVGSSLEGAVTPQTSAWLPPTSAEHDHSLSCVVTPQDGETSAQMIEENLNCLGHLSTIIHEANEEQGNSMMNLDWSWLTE
UniProt Q7L2Z9: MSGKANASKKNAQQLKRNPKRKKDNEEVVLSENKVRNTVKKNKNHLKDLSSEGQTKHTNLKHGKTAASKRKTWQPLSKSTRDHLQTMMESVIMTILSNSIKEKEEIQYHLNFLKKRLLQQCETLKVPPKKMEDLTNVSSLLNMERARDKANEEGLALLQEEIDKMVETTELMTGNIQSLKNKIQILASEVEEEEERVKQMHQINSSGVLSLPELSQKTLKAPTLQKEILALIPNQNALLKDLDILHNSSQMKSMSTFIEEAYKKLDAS
UniProt Q9UK39: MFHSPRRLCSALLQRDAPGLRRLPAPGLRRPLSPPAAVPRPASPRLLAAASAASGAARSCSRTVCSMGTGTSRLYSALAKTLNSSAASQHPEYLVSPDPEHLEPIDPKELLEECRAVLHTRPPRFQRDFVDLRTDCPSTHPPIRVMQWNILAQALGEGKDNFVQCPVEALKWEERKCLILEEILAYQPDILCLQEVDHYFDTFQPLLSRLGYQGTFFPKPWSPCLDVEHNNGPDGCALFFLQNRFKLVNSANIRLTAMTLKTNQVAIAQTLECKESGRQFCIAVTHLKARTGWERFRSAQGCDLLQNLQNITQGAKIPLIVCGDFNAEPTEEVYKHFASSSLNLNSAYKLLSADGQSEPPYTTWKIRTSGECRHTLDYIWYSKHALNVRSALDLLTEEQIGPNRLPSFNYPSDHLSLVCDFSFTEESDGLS
UniProt Q9H6F5: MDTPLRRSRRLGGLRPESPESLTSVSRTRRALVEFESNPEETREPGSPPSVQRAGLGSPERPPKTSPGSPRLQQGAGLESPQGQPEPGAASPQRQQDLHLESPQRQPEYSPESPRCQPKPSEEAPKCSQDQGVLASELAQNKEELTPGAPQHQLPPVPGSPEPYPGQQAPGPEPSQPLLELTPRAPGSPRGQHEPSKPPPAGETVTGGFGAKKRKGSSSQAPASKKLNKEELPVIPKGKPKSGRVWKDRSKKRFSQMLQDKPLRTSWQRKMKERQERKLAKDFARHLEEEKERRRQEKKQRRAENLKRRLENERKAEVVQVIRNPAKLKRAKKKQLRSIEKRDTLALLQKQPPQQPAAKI
UniProt Q13111, whole entry: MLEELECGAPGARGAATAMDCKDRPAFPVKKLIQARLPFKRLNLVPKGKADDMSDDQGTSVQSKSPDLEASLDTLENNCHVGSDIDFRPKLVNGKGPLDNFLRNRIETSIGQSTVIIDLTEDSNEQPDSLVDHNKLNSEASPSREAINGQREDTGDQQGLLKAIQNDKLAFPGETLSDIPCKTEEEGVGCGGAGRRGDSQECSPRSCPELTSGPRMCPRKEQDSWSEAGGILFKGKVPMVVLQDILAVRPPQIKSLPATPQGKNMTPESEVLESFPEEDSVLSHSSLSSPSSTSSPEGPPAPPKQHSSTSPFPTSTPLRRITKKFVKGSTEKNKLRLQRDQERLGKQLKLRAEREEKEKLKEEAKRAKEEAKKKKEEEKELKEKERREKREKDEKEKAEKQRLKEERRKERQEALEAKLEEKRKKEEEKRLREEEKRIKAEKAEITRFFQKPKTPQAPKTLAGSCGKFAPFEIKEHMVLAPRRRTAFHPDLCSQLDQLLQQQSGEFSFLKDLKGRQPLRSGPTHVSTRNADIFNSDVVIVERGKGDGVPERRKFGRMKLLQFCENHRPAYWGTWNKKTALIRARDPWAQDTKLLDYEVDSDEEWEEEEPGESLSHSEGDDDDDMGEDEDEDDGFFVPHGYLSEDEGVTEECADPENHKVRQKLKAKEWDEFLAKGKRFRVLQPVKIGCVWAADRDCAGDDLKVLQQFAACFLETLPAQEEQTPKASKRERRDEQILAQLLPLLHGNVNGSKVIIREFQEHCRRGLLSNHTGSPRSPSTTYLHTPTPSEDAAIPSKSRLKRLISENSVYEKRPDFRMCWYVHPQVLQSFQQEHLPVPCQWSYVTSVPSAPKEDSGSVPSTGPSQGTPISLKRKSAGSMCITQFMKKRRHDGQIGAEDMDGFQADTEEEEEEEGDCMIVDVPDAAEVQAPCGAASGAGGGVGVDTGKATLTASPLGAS
UniProt Q5T4B2: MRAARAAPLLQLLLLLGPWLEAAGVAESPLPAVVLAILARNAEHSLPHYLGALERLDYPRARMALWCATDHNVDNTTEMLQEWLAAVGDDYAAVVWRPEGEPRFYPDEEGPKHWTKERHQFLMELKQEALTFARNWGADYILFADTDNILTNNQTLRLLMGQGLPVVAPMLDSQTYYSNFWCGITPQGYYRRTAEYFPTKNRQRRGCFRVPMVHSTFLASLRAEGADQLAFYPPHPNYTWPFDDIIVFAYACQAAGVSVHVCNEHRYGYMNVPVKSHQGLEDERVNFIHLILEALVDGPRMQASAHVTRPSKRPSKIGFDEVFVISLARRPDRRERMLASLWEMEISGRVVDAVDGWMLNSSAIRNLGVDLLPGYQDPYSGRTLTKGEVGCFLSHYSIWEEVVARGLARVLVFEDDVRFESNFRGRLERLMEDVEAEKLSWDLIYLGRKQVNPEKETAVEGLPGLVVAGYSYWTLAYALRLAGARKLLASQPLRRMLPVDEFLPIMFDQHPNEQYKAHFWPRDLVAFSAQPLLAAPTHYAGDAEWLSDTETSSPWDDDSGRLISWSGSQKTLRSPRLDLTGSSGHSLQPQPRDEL

Compound: COc1ccc(Cn2ccc3ccc(C(=O)NO)cc32)cc1
Assay: dose-dependent thermal stabilisation call (2D-TPP, DLPTP, 10% FDR) (binary (1 = stabilised)); higher = stabilised by the compound
Conditions: system: HL-60 intact cells; concentration range 0.04-10 µM

| Target | dose-dependent thermal stabilisation call |
| --- | --- |
| CD82 (UniProt P27701) | inactive: 0 |
| CEBPA (UniProt P49715) | inactive: 0 |
| CISD3 (UniProt P0C7P0) | inactive: 0 |
| CGGBP1 (UniProt Q9UFW8) | inactive: 0 |
| CCDC12 (UniProt Q8WUD4) | inactive: 0 |
| CMPK1 (UniProt P30085) | inactive: 0 |
| CDKN2C (UniProt P42773) | inactive: 0 |
| CCT5 (UniProt P48643) | inactive: 0 |
| CLNS1A (UniProt P54105) | inactive: 0 |
| CCDC76 (UniProt Q9NUP7) | active: 1 |
| CCDC150 (UniProt Q8NCX0) | inactive: 0 |
| CHTF18 (UniProt Q8WVB6) | inactive: 0 |
| CHMP1A (UniProt Q9HD42) | inactive: 0 |
| CNOT4 (UniProt O95628) | inactive: 0 |
| CHUK (UniProt O15111) | inactive: 0 |
| CNDP2 (UniProt Q96KP4) | inactive: 0 |
| CLN6 (UniProt Q9NWW5) | inactive: 0 |
| CENPQ (UniProt Q7L2Z9) | inactive: 0 |
| CD53 (UniProt P19397) | inactive: 0 |

Reformatted: results already given
CCDC150 (UniProt Q8NCX0)
  dose-dependent thermal stabilisation call: inactive: 0
CENPQ (UniProt Q7L2Z9)
  dose-dependent thermal stabilisation call: inactive: 0

Following part:

| Target | dose-dependent thermal stabilisation call |
| --- | --- |
| CCT6A (UniProt P40227) | inactive: 0 |
| CLEC16A (UniProt Q2KHT3) | inactive: 0 |
| CCRN4L (UniProt Q9UK39) | inactive: 0 |
| CIT (UniProt O14578) | inactive: 0 |
| CCDC86 (UniProt Q9H6F5) | inactive: 0 |
| CLN3 (UniProt Q13286) | inactive: 0 |
| CHAF1A (UniProt Q13111) | inactive: 0 |
| CCNB2 (UniProt O95067) | inactive: 0 |
| CERCAM (UniProt Q5T4B2) | inactive: 0 |
| CES3 (UniProt Q6UWW8) | inactive: 0 |
| CLN5 (UniProt O75503) | inactive: 0 |
| CCDC9 (UniProt Q9Y3X0) | inactive: 0 |
| CMIP (UniProt Q8IY22) | inactive: 0 |
| CCDC52 (UniProt Q8N0Z3) | inactive: 0 |
| CD244 (UniProt Q9BZW8) | inactive: 0 |
| CDC20 (UniProt Q12834) | inactive: 0 |
| CDC27 (UniProt P30260) | inactive: 0 |
| CCDC88A (UniProt Q3V6T2) | inactive: 0 |
